Screen size: about 350,000 compounds; about 220 (0.063%) were called active. Inconclusive results, whose numbers are uncertain, are shown with a selection of clear calls. Calls follow the shape of the dose curve; as a rule, active = well fitted activation curve with a large enough effect; inconclusive = small, poorly fitted or top-dose-only effect; inactive = no such curve, though single readings can be large or run the other way. Where the call is inconclusive, the potency comes from a doubtful curve fit.
Test: qHTS for Activators of Integrin-Mediated Alleviation for Muscular Dystrophy; also: nearly all actives have a fitted effect of over 60% in size;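 as to activation: 100% = response of the positive control SU9516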
Details: alpha7betagal myoblasts, beta-gal FDG fluorescence, 48 h; activation: at 38.3 µM (top of the series)
How it was run: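 Alpha7betagal+/- myoblasts (passage 13) were plated 16-24 hr, then exposed to compounds (1:260 dilution of DMSO stock) for 48 hours at 37C. After MPER lysis, β-galactosidase reporter activity was read as FDG fluorescence (ex 480/em 540) after 30 minutes.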
Potency is read from the fitted curve at half-maximal effect.

| SMILES | Potency | activation |
| --- | --- | --- |
| CCC(O)CNC(=O)NC(=C(Cl)Cl)c1ccc(C)c(F)c1 (centres undefined) | inactive |  |
| NC(=O)NCCCC(NC(=O)c1ccc(C#CC2(O)CCCCC2)cc1)C(=O)O (centres undefined) |  | inconclusive: -29.4% [activator] |
| CCn1c(SCC(=O)NCC2CCCO2)nnc1-c1ccccc1 (centres undefined) | inactive |  |
| Fc1cc(F)c(C2SCCN2C(=S)Nc2cccc(C(F)(F)F)c2)c(F)c1 (centres undefined) | inactive |  |
| COC(=O)c1ccc2c(=O)n(Cc3ccc(C(=O)NCCCN4CCC(C)CC4)cc3)c(=S)[nH]c2c1 | inconclusive: 3.16 µM [activator, single point] |  |
| Cc1ccc(NC(=S)Nc2cc(C(=O)O)ccc2N2CC3CC(C2)c2cccc(=O)n2C3)cc1C (centres undefined) | inconclusive: 28.2 µM [activator, single point] |  |
| Cc1cccc(NC(=O)c2cccc([N+](=O)[O-])c2O)c1C | inconclusive: 11.2 µM [activator, partial curve, poor fit] |  |
| O=C(Nc1ccc2oc(=O)ccc2c1)c1ccco1 | inactive |  |
| CCCCCC(=O)N1C[C@H](O)[C@@H](n2cc(COC(=O)c3ccccc3)nn2)C[C@@H]1c1ccc(C)cc1 | inactive |  |
| CCOC(=O)C1CCN(c2cc3c(cc2NC(=O)c2ccccc2OCC)n(C)c(=O)n3C)CC1 | inconclusive: 11.2 µM [activator, single point] |  |
| Cc1nc2ccccn2c1-c1csc(Nc2ccc(C(=O)O)cc2)n1 | inconclusive: 2.51 µM [activator, single point] |  |
| COc1ccc(OC)c(/C=N/N2CCN(c3ccc(Cl)cc3)CC2)c1 | inconclusive: 28.2 µM [activator, single point] |  |
| O=C1CN(C(=O)COC(=O)COc2ccc3c(c2)CCC3)c2ccccc2N1 | inconclusive: 3.16 µM [activator, single point] |  |
| CCn1cnc2c1c(=O)n(CC(=O)O)c(=O)n2Cc1ccccc1 | inconclusive: 1.58 µM [activator, partial curve, poor fit] |  |
| CCOC(=O)N1CCN(C(=O)CCc2ccccc2)CC1 | inconclusive: 10 µM [activator, single point] |  |
| CCOC(=O)NN=C1CCC(c2ccccc2)CC1 (centres undefined) | inconclusive: 22.4 µM [activator, single point] |  |
| O=C(CCc1nc2ccccc2c(=O)[nH]1)Nc1nnc(SCc2ccc(F)cc2)s1 | inactive |  |
| CCCCCSc1nc2c(c(=O)[nH]c(=O)n2C)n1CCc1ccccc1 | inconclusive: 31.6 µM [activator, single point] |  |
| O=C(NCC1(c2ccccc2)CCCC1)c1ccccc1 | inconclusive: 28.2 µM [activator, single point] |  |
| C=CCNC(=O)NC(=O)COC(=O)CNS(=O)(=O)c1ccc(F)c(F)c1F | inactive |  |
| COC(=O)C1=C(C(=O)OC)C(c2ccccc2O)c2sc(=O)[nH]c2S1 (centres undefined) | inconclusive: 28.2 µM [activator, single point] |  |
| COc1ccc(CCNC(=O)c2oc3ccc(OC)cc3c2C)cc1 | inactive |  |

Three successive entries out of the list so far, quoted:

| SMILES | Potency | activation |
| --- | --- | --- |
| Fc1cc(F)c(C2SCCN2C(=S)Nc2cccc(C(F)(F)F)c2)c(F)c1 (centres undefined) | inactive |  |
| COC(=O)c1ccc2c(=O)n(Cc3ccc(C(=O)NCCCN4CCC(C)CC4)cc3)c(=S)[nH]c2c1 | inconclusive: 3.16 µM [activator, single point] |  |
| Cc1ccc(NC(=S)Nc2cc(C(=O)O)ccc2N2CC3CC(C2)c2cccc(=O)n2C3)cc1C (centres undefined) | inconclusive: 28.2 µM [activator, single point] |  |

The list goes on.

| SMILES | Potency | activation |
| --- | --- | --- |
| Cc1nc(C2COc3ccccc3O2)sc1C(=O)O (centres undefined) | inactive |  |
| O=C(O)C(Cc1ccc(Cl)cc1)NS(=O)(=O)c1ccc(Cl)cc1 (centres undefined) | inactive |  |
| COc1ccc(/C=C(\C#N)C(=O)OCC(=O)NCc2ccccc2OC)cc1 | inconclusive: 3.16 µM [activator, partial curve, poor fit] |  |
| COc1cccc(NC(=O)C2C3C=CC4(O3)C2C(=O)N(CCCN2CCCCC2)C4C(=O)NC2CCCCC2)c1 (centres undefined) | inconclusive: 5.01 µM [activator, single point] |  |
| COCCn1cnc2c1c(=O)n(CC(=O)OCC#N)c(=O)n2Cc1ccccc1 | inconclusive: 11.2 µM [activator, single point] |  |
| COCc1c(C(=O)Nc2ccc3nc(N4CCOCC4)sc3c2)oc2ccccc12 | inconclusive: 2.24 µM [activator, partial curve, poor fit] |  |
| Cc1ccc(C(=O)NCCc2ccccc2)cc1 | inconclusive: 12.6 µM [activator, single point] |  |
| CCCCCC1CC(CC(=O)NC(=S)Nc2ccccc2Cl)C(=O)O1 (centres undefined) | inactive |  |
| Cc1cc(-c2ccccc2)nc(N/N=C/c2ccccc2)n1 | inconclusive: 28.2 µM [activator, single point] |  |
| COCCNC(=O)CN(c1ccc(F)cc1)S(=O)(=O)c1ccc2c(c1)OCCO2 | inconclusive: 5.01 µM [activator, single point] |  |
| COc1cc2[nH]c(=O)n(Cc3ccc(C(=O)N4CCC(N5CCCCC5)CC4)cc3)c(=O)c2cc1OC | inactive |  |
| O=S(=O)(Nc1ccc(Br)cn1)c1ccc(Cl)s1 | inconclusive: 3.55 µM [activator, single point] |  |
| Cc1ccc(C)c(OCc2cc(C(=O)NC3CCOC(C)(C)C3)no2)c1 (centres undefined) | inconclusive: 12.6 µM [activator, partial curve, poor fit] |  |
| CCc1c(C)nc2cc(C)[nH]n2c1=O |  | inconclusive: -4.63% [activator] |
| Cc1[nH]n(-c2ccccc2)c(=O)c1-c1ccccc1 | inconclusive: 10 µM [activator, single point] |  |
| COC(=O)c1nnn(CC(=O)Nc2cc(Cl)ccc2C)c1C(=O)OC | inconclusive: 3.98 µM [activator, single point] |  |
| O=C(CNC(=O)c1ccc(Br)o1)Nc1ccncc1 | inconclusive: 3.16 µM [activator, partial curve, poor fit] |  |
| Cn1c(=O)n(C)c2cc(NC(=O)CCl)ccc21 | inactive |  |
| CCc1ccc(-c2csc(NC(=O)Oc3ccccc3)n2)cc1 | inconclusive: 0.891 µM [activator, full curve, poor fit] |  |
| COc1cccc(OC)c1C(=O)N1CCN(Cc2cccnc2)CC1 | inconclusive: 4.47 µM [activator, single point] |  |
| Cc1ccc(NC(=O)CCC(=O)NNC(=O)C(C)(C)C)c(C)c1 | inconclusive: 5.01 µM [activator, single point] |  |
| C(=C\c1ccccc1)/CN1CCN(c2ncnc3c2oc2ccccc23)CC1 |  | inactive: 8.66% [at 7.66 µM] |
